In patent publication US11377441B2, “Covalent inhibitors of KRAS” (Araxes Pharma LLC, priority 2017, dated 2022):
Some entries share one result that the patent states for a list of compounds.

Target: T1, KRAS G12C 1-169, his-tagged protein, GDP-loaded (Homo sapiens, UniProt P01116, G12C)
T1 construct: KRAS G12C 1-169, his-tagged protein, GDP-loaded
Experiment: Biochemical assay: covalent modification of KRAS G12C measured by mass spectrometry (RapidFire/TOF or Q-Exactive)
Assay type: binding
Conditions: Example 14 comparative biochemical data; tested according to the above procedures (Example 1)
Procedure: Test compounds were prepared as 10 mM stock solutions in DMSO (Fisher cat #BP-231-100). KRAS G12C 1-169, his-tagged protein, GDP-loaded is diluted to 2 μM or 0.5 μM in buffer (20 mM Hepes, 150 mM NaCl, 1 mM MgCl2). Compounds were tested for activity as follows:
Compounds were diluted to 50× final test concentration in DMSO in 96-well storage plates. Compound stock solutions were vortexed before use and observed carefully for any sign of precipitation. Dilutions are as follow: • For 100 μM final compound concentration, compounds were diluted to 5000 μM (5 μL 10 mM compound stock+5 μL DMSO and mixed well by pipetting. • For 30 μM final compound concentration, compounds were diluted to 1500 μM (3 μL 10 mM compound stock+17 μL DMSO) and mixed well by pipetting. • For 10 μM final compound concentration, compounds were diluted to 500 μM (2 μL 10 mM compound stock+38 μL DMSO) and mixed well by pipetting. 49 μL of the stock protein solution was added to each well of a 96-well PCR plate (Fisher cat #1423027). 1 μL of the diluted 50× compounds were added to appropriate wells in the PCR plate using 12-channel pipettor. Reactions were mixed carefully and thoroughly by pipetting up/down with a 200 μL multi-channel pipettor. The plate was sealed well with aluminum plate seal, and stored in drawer at room temperature for 10 minutes, 30 minutes, 2 hours or 24 hours. 5 μL of 2% formic acid (Fisher cat #A117) in de-ionized H2O was then added to each well followed by mixing with a pipette. The plate was then resealed with aluminum seal and stored on dry ice until analyzed as described below.
The above described assays were analyzed by mass spectrometry according to one of the following two procedures:
The MS instrument was set to positive polarity, 2 GHz resolution, and low mass (1700) mode and allowed to equilibrate for 30 minutes. The instrument was then calibrated, switched to acquisition mode and the appropriate method loaded.
After another 30 minute equilibration time, a blank batch (i.e., buffer) was run to ensure equipment is operating properly. The samples were thawed at 37° C. for 10 minutes, briefly centrifuged, and transfer to the bench top. Wells A1 and H12 were spiked with 1 μL 500 μM internal standard peptide, and the plates centrifuged at 2000×g for 5 minutes. The method was then run and masses of each individual well recorded.
The masses (for which integration data is desired) for each well were pasted into the platemap and exported from the analysis. Masses for the internal standards were exported as well. The data at 50 ppm was extracted for the +19 charge state, and identity of well A1 was assigned using the internal standard spike and integrated. Peak data was exported as a TOF list and the above steps were repeated individually, for the +20, 21, 22, 23, 24, and 25 charge states.
The masses and peak intensities of KRAS G12C protein species were measured using a Dionex RSLCnano system (Thermo Scientific) connected to a Q Exactive Plus mass spectrometer (Thermo Scientific).
[…] of sample was each loaded onto a Aeris™ 3.6 μm WIDEPORE C4 200 Å, LC Column 50×2.1 mm column maintained at 40° C. at a flow rate of 600 μL/min with 20% Solvent A (0.1% formic acid in H2O) and […] (0.1% formic acid in acetonitrile). The liquid chromatography conditions were 20% solvent B for 1 minute, 20% to 60% solvent B for 1.5 minutes, 60% to 90% solvent for 0.5 minute, 90% solvent B for 0.2 minute, 90% to 20% solvent B for 0.2 minute, and then equilibrated for 1.6 minutes before the following sample injection. The flow rate was maintained at 600 μL/min throughout the sample analysis.
The mass spectrometer was operated in profile mode at a resolution of 17500, 5 microscans, using 50 msec max injection time and an AGC target of 1×10^6, and a full mass range from 800-1850 m/z was recorded. The HCD trapping gas was optimized for maximum sensitivity for intact proteins. […]

Row | SMILES | binding activity [%]
1 | C=CC(=O)N1C[C@H](C)N(c2nc(N3CC(N(C)C)C3)nc3c(F)c(-c4c(C)ccc5[nH]nc(N)c45)c(Cl)cc23)C[C@H]1C (atropisomer, axis not shown) [Compound 35, 1-((2R,5S)-4-((R)-7-(3-amino-5-methyl-1H-indazol-4-yl)-6-chloro-2-(3-(dimethylamino)azetidin-1-yl)-8-fluoroquinazolin-4-yl)-2,5-dimethylpiperazin-1-yl)prop-2-en-1-one] | > 80
2 | C=CC(=O)N1C[C@H](C)N(c2nc(OCCN3CCC(F)(F)C3)nc3c(F)c(-c4c(C)ccc5[nH]nc(N)c45)c(Cl)cc23)C[C@H]1C (atropisomer, axis not shown) [Compound 67, 1-((2R,5S)-4-((R)-7-(3-amino-5-methyl-1H-indazol-4-yl)-6-chloro-2-(2-(3,3-difluoropyrrolidin-1-yl)ethoxy)-8-fluoroquinazolin-4-yl)-2,5-dimethylpiperazin-1-yl)prop-2-en-1-one] | > 80
3 | C=CC(=O)N1CCN(c2nc(N3CC(N(C)C)C3)nc3c(F)c(-c4c(C)ccc5[nH]nc(C6CC6)c45)c(Cl)cc23)CC1 (atropisomer, axis not shown) [Compound 104, (R)-1-(4-(6-chloro-7-(3-cyclopropyl-5-methyl-1H-indazol-4-yl)-2-(3-(dimethylamino)azetidin-1-yl)-8-fluoroquinazolin-4-yl)piperazin-1-yl)prop-2-en-1-one] | > 80
4 | C=CC(=O)N1C[C@H](C)N(c2nc(OCCN3CCC(F)(F)C3)nc3c(F)c(-c4c(C)ccc5[nH]nc(C6CC6)c45)c(Cl)cc23)C[C@H]1C (atropisomer, axis not shown) [Compound 117, 1-((2R,5S)-4-((R)-6-chloro-7-(3-cyclopropyl-5-methyl-1H-indazol-4-yl)-2-(2-(3,3-difluoropyrrolidin-1-yl)ethoxy)-8-fluoroquinazolin-4-yl)-2,5-dimethylpiperazin-1-yl)prop-2-en-1-one] | > 80
5 | C=CC(=O)N1C[C@H](C)N(c2nc(OCCN3CCC(F)(F)C3)nc3c(F)c(-c4c(C)ccc5cnn(C)c45)c(Cl)cc23)C[C@H]1C (atropisomer, axis not shown) [Compound 136, 1-((2R,5S)-4-((R)-6-chloro-2-(2-(3,3-difluoropyrrolidin-1-yl)ethoxy)-7-(1,6-dimethyl-1H-indazol-7-yl)-8-fluoroquinazolin-4-yl)-2,5-dimethylpiperazin-1-yl)prop-2-en-1-one] | > 80
6 | C=CC(=O)N1C[C@H](C)N(c2nc(N3CC(N(C)C)C3)nc3c(F)c(-c4c(C)ccc5cnn(C6CC6)c45)c(Cl)cc23)C[C@H]1C (atropisomer, axis not shown) [Compound 150, 1-((2R,5S)-4-((R)-6-chloro-7-(1-cyclopropyl-6-methyl-1H-indazol-7-yl)-2-(3-(dimethylamino)azetidin-1-yl)-8-fluoroquinazolin-4-yl)-2,5-dimethylpiperazin-1-yl)prop-2-en-1-one] | > 80
7 | C=CC(=O)N1C[C@H](C)N(c2nc(OCCCN(C)C)nc3c(F)c(-c4c(C)ccc5cnn(C)c45)c(Cl)cc23)C[C@H]1C (atropisomer, axis not shown) [Compound 154, 1-((2R,5S)-4-((R)-6-chloro-7-(1,6-dimethyl-1H-indazol-7-yl)-2-(3-(dimethylamino)pro-poxy)-8-fluoroquinazolin-4-yl)-2,5-dimethylpiperazin-1-yl)prop-2-en-1-one] | > 80
